Measurements as given in patent publication US6525022B1, “Receptor specific atrial natriuretic peptides” (Genentech, Inc., priority 1993, dated 2003).
No constants are given. Whether binding was seen depends on the method and setting. Some entries that bind do so weakly or less than the wild type.

Target: T1, human natriuretic peptide receptor-A (human, UniProt P16066 33-1061)
T1 construct: whole, on cells; also called hNPR-A; human NPR-A
T1 sequence (looked up): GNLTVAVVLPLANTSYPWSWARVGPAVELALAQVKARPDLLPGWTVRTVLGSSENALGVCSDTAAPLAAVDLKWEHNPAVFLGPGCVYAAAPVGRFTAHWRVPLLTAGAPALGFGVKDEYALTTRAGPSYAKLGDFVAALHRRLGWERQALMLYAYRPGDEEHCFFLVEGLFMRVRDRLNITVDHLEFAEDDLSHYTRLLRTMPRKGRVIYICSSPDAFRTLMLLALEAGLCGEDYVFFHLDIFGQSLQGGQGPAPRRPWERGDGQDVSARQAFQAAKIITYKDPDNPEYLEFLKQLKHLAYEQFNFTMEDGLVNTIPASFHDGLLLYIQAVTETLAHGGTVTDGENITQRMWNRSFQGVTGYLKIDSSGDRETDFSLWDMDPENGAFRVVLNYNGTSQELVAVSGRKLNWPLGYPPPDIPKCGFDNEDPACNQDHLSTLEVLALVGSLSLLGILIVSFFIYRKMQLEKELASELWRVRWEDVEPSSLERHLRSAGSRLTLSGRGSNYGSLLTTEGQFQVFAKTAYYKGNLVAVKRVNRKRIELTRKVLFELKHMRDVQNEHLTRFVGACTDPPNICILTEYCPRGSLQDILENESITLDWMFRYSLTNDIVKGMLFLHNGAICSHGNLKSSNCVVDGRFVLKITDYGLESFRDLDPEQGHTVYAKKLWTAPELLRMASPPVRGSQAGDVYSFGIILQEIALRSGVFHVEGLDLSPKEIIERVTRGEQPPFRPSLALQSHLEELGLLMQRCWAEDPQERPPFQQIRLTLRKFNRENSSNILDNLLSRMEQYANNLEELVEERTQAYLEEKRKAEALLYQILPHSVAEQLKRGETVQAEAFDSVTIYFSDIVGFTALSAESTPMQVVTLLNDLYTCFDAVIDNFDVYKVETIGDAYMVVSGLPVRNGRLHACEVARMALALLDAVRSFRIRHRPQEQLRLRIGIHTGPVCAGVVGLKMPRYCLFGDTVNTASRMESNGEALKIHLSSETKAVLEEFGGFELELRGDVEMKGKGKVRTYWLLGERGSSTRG
Assay: analysis of variants in receptor binding

- binding: binds
Binder: SLRRSSCFGGRMDRIRAQSGLGCNSFRY [hANF(1-28) G16R]
